# Assay results as given in the supplement of paper PMC6411743.
# Chains of the proteins cited; added tags and fusions are not shown. Lines headed by an entry give the natural chain unless they say otherwise; changes in a name come on top.
# UniProt Q9NRN7: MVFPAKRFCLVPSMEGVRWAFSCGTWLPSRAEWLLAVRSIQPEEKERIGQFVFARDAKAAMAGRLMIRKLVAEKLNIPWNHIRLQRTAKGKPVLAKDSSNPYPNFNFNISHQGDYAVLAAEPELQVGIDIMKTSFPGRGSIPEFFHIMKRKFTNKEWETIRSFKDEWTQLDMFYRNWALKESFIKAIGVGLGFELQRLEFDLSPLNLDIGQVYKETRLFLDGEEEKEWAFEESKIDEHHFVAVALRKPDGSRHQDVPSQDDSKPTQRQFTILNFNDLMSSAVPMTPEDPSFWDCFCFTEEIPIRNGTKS
# UniProt Q9NV35: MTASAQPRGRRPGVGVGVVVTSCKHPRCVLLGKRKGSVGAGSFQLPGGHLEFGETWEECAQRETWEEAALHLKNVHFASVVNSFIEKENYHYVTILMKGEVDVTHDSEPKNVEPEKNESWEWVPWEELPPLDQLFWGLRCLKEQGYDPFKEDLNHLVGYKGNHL
# UniProt Q9NVI1: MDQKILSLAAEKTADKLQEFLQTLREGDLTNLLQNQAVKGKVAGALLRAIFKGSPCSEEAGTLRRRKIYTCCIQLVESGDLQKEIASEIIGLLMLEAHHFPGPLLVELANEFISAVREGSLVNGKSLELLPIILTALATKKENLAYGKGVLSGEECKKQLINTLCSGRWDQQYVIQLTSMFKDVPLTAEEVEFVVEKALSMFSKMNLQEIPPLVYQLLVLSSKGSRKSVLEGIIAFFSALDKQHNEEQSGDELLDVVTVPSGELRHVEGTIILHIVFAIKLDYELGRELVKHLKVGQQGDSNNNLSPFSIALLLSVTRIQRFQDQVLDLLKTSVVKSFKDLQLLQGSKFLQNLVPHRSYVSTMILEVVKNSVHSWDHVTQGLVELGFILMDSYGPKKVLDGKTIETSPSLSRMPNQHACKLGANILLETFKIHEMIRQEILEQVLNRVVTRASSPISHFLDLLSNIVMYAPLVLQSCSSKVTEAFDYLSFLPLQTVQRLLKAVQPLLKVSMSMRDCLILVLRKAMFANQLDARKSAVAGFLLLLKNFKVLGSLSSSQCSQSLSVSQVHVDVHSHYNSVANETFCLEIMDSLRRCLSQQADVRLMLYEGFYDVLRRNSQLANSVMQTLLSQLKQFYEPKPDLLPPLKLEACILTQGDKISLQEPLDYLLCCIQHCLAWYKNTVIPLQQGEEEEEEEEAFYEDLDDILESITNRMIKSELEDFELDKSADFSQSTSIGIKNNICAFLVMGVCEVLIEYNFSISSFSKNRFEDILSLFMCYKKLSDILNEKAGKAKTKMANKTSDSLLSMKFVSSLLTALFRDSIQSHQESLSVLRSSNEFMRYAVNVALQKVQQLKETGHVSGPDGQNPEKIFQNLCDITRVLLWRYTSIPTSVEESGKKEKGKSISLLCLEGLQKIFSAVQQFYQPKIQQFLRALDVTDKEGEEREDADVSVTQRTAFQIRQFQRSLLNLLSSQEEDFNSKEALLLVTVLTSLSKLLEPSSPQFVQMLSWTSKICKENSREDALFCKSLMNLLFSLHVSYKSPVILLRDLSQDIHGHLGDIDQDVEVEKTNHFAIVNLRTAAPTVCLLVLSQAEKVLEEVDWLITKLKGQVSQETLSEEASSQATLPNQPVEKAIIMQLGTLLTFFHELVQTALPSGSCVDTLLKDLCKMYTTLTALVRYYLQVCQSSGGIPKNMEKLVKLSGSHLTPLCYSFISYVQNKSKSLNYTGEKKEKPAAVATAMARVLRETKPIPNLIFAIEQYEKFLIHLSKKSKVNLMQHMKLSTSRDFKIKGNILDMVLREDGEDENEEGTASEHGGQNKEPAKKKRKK
# UniProt Q9NQY0: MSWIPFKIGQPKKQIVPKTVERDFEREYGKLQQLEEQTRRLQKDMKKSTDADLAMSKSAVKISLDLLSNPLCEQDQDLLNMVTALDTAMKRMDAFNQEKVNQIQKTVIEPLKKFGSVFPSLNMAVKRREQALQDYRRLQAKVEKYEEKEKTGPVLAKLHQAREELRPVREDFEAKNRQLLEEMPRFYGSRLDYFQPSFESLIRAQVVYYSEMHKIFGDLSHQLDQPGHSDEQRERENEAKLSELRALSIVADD
# UniProt Q9NXR7, whole entry: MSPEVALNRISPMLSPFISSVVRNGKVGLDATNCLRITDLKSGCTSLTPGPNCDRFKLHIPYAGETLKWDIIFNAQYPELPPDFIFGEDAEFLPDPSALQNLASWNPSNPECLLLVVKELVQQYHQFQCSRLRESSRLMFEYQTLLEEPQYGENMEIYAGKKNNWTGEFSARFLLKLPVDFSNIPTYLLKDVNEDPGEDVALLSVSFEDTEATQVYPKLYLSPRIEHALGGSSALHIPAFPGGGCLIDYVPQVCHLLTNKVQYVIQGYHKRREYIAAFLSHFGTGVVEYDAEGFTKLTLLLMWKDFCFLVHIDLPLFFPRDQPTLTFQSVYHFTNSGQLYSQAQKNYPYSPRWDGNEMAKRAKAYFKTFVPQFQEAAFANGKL
# UniProt Q9P0B6: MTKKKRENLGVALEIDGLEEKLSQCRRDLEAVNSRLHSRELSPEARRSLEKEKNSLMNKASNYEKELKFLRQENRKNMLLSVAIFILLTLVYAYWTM
# UniProt Q9NZ01: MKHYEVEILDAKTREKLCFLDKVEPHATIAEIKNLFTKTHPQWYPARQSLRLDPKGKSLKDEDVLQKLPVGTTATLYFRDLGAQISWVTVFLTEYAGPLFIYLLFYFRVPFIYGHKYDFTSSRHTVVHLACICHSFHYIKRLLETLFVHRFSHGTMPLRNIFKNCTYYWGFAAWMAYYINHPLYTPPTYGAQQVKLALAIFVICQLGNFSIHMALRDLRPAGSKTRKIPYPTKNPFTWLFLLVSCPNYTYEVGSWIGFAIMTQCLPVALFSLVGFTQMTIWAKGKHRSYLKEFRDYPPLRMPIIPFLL
# UniProt Q9NVC6: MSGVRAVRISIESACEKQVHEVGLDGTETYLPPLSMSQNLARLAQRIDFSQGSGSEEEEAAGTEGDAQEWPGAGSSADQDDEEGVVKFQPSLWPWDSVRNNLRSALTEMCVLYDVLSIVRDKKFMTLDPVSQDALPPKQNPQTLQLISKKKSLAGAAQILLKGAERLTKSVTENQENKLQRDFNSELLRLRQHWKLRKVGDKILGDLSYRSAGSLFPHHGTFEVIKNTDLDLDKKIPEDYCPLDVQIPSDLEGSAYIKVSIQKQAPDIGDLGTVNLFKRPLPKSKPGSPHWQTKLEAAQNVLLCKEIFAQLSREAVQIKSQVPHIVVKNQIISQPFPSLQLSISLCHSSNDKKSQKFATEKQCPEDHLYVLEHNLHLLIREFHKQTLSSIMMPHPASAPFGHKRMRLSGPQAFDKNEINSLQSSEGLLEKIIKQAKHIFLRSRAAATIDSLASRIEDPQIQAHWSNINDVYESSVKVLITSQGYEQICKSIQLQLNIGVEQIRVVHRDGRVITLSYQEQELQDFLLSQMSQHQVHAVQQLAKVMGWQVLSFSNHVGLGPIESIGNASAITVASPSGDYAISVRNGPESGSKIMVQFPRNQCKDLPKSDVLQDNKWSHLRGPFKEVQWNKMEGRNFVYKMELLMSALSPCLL
# UniProt Q9NUM4, whole entry: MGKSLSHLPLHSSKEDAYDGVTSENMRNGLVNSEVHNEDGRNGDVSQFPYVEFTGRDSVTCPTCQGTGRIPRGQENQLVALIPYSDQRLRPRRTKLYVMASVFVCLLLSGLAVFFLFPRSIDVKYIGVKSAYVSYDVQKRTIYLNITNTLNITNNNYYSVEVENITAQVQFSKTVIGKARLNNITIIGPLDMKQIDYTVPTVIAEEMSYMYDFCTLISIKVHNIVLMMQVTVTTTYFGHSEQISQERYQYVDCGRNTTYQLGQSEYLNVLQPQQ
# UniProt Q9NRL2: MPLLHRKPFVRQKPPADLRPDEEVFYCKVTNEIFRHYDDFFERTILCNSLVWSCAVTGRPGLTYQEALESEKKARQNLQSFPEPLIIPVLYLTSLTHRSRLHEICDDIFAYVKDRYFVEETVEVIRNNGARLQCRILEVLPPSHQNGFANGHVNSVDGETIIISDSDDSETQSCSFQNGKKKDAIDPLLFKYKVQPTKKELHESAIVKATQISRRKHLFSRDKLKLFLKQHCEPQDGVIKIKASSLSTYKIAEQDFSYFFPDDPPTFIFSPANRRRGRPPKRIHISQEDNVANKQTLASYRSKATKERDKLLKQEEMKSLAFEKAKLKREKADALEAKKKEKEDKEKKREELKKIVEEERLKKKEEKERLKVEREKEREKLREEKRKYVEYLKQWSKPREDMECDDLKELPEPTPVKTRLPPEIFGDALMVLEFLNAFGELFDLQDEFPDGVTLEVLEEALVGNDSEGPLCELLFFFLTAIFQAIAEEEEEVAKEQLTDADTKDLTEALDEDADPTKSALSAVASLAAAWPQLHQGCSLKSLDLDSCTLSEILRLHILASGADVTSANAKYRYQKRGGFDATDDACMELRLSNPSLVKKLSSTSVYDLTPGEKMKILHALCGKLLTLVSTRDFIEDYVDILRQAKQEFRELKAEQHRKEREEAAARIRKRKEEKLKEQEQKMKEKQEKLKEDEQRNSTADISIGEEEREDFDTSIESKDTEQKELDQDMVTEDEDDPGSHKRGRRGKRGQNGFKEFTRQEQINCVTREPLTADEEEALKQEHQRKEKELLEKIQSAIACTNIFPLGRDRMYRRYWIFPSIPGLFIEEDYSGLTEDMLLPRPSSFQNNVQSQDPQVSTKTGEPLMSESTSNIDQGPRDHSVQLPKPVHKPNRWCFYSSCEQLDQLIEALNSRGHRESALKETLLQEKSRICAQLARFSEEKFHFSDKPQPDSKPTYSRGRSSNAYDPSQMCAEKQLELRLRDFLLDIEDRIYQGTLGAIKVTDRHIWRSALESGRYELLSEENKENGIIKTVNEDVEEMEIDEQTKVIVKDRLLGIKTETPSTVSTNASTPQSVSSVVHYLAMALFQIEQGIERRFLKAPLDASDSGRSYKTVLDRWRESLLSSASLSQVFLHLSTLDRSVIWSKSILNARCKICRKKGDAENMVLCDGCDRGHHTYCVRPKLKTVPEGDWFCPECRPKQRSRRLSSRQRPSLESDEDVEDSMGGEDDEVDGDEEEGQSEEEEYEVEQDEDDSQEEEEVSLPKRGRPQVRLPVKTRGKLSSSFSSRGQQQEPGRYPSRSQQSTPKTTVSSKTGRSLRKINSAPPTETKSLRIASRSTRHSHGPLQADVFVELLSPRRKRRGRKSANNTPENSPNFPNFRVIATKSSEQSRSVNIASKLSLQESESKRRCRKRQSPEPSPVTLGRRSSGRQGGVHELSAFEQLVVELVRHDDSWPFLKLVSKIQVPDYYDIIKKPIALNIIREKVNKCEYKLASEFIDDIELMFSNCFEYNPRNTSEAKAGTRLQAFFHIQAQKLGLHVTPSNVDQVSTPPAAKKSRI
# UniProt Q9NU19: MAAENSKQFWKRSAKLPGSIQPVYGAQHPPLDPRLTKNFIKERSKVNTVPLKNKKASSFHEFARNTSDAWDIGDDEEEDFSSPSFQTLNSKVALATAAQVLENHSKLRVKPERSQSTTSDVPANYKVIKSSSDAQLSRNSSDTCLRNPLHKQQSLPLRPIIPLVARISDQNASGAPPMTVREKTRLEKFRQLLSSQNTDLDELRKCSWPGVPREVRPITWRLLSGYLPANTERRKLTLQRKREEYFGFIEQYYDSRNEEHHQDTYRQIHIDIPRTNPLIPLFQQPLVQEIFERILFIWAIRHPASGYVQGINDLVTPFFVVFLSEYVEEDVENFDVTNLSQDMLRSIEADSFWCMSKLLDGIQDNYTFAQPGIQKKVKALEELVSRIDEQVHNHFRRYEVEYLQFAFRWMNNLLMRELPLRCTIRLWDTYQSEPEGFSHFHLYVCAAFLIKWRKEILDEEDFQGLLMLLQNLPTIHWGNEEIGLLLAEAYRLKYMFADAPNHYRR
# UniProt Q9NQX3: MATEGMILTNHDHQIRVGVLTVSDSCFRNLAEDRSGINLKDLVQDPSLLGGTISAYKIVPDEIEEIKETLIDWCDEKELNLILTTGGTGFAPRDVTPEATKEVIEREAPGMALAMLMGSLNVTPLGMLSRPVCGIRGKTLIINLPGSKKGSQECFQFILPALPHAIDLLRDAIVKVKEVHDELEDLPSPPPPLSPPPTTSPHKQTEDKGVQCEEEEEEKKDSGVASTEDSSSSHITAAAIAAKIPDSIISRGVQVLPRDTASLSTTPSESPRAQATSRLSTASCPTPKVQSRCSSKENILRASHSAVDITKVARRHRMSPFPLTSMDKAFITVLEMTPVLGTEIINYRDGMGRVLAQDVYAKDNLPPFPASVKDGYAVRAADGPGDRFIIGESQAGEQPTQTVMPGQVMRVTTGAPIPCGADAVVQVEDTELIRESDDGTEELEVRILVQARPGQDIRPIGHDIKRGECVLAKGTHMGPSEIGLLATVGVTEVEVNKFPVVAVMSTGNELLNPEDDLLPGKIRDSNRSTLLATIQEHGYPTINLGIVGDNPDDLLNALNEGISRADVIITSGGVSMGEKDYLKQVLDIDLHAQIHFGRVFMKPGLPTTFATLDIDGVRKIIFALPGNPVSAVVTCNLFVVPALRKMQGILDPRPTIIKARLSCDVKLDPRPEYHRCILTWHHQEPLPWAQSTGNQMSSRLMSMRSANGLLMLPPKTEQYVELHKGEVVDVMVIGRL
# ± gives the standard deviation of the averaged measurements. Only a part is listed here, and it is no random draw. Small differences around the control level are noise.
# Compound: Nc1ncnc2c1ncn2[C@@H]1O[C@H](COP(=O)(O)OP(=O)(O)OP(=O)(O)O)[C@@H](O)[C@H]1O [adenosine triphosphate]
# Assay: NP40-soluble protein abundance relative to vehicle (solubility fold change) (ratio); higher = more soluble protein in presence of ATP
# Method in brief: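 Values are fold changes against the detergent-processed vehicle, based on vsn-normalised intensities. Jurkat crude lysate was treated at eight concentrations from 0.1 to 10 mM (10 min at room temperature, then 3 min at 37 °C), solubilised with 0.8% NP40 and benzonase, ultracentrifuged and analysed by TMT-labelled LC-MS/MS over three independent experiments.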
Target,NP40-soluble protein abundance (concentration: 0.1mM),NP40-soluble protein abundance (concentration: 0.5mM)
SNX15 (UniProt Q9NRS6),0.991 ± 0.029,0.946 ± 0.034
UniProt Q9NQ11 and related entries,0.948 ± 0.21,0.877 ± 0.11
CUTC (UniProt Q9NTM9),1.03 ± 0.095,1.01 ± 0.066
AASDHPPT (UniProt Q9NRN7),1.05 ± 0.097,1.02 ± 0.088
PDLIM7 (UniProt Q9NR12),1 ± 0.024,0.9909 ± 0.0089
UniProt Q9NUP1,0.892 ± 0.14,0.825 ± 0.13
UniProt Q9NV56,0.998 ± 0.037,0.985 ± 0.014
PAG1 (UniProt Q9NWQ8),0.945 ± 0.053,0.919 ± 0.082
CNOT2 (UniProt Q9NZN8),0.993 ± 0.039,1.13 ± 0.059
PFDN4 (UniProt Q9NQP4),0.896 ± 0.13,0.837 ± 0.14
UniProt Q9NW81 and related entries,0.997 ± 0.049,1.004 ± 0.0068
NUDT15 (UniProt Q9NV35),0.9834 ± 0.0095,1.04 ± 0.071
CCDC88C (UniProt Q9P219),1.01 ± 0.022,1 ± 0.046
CHST12 (UniProt Q9NRB3),0.916 ± 0.047,0.882 ± 0.087
UniProt Q9NW15-5|C9J670 and related entries,0.997 ± 0.12,0.971 ± 0.096
NANS (UniProt Q9NR45),1.04 ± 0.069,1.05 ± 0.084
FANCI (UniProt Q9NVI1),1 ± 0.078,1.01 ± 0.05
UniProt Q9NUY8 and related entries,1 ± 0.061,1.01 ± 0.023
BIN3 (UniProt Q9NQY0),0.873 ± 0.17,0.906 ± 0.22
RBM12 (UniProt Q9NTZ6),1.01 ± 0.021,0.985 ± 0.047
UniProt Q9NRA8 and related entries,0.975 ± 0.062,1.02 ± 0.069
POGK (UniProt Q9P215),0.993 ± 0.063,1.02 ± 0.037
UniProt Q9NPL8,0.989 ± 0.016,1.01 ± 0.051
UniProt Q9NXR7,1.03 ± 0.076,0.986 ± 0.054

Target,NP40-soluble protein abundance (concentration: 0.1mM),NP40-soluble protein abundance (concentration: 0.5mM)
KLHL11 (UniProt Q9NVR0),1.06 ± 0.12,1.05 ± 0.12
AATF (UniProt Q9NY61),1.04 ± 0.045,1.07 ± 0.11
NHP2 (UniProt Q9NX24),0.984 ± 0.054,1.04 ± 0.15
UniProt Q9P0B6,0.78 ± 0.15,0.788 ± 0.28
UniProt Q9NYJ8,0.912 ± 0.063,0.813 ± 0.041
UniProt Q9NZ01,0.987 ± 0.09,1.01 ± 0.029
EXOSC3 (UniProt Q9NQT5),1.02 ± 0.057,1.09 ± 0.063
FAM118A (UniProt Q9NWS6),0.999 ± 0.096,0.971 ± 0.038
UniProt Q9NUP9,0.948 ± 0.095,0.921 ± 0.08
TMEM9 (UniProt Q9P0T7),0.942 ± 0.093,0.887 ± 0.11
UniProt Q9NVS9 and related entries,0.989 ± 0.011,0.989 ± 0.017
UniProt Q9NSG2 and related entries,1.01 ± 0.069,1.04 ± 0.02
UniProt Q9NVM9,1.02 ± 0.026,1.04 ± 0.07
UniProt Q9P0U3 and related entries,1.03 ± 0.0091,1 ± 0.068
UniProt Q9NYR9 and related entries,1.02 ± 0.018,1.08 ± 0.059
ABCF3 (UniProt Q9NUQ8),1.09 ± 0.019,1.11 ± 0.016
TMEM160 (UniProt Q9NX00),1.01 ± 0.076,1.07 ± 0.097
DPP3 (UniProt Q9NY33),1.04 ± 0.064,1.03 ± 0.064
SMC4 (UniProt Q9NTJ3),1.01 ± 0.036,1.04 ± 0.06
HOMER3 (UniProt Q9NSC5),0.989 ± 0.1,0.984 ± 0.041
PDRG1 (UniProt Q9NUG6),0.918 ± 0.097,0.956 ± 0.077
UniProt Q9NYV4 and related entries,1.04 ± 0.023,1.23 ± 0.033
AGPAT5 (UniProt Q9NUQ2),1.07 ± 0.068,1.03 ± 0.06
UniProt Q9NPH3 and related entries,0.928 ± 0.07,0.981 ± 0.097

Target,NP40-soluble protein abundance (concentration: 0.1mM),NP40-soluble protein abundance (concentration: 0.5mM)
UniProt Q9P1Y5 and related entries,1.06 ± 0.083,1.07 ± 0.11
MED17 (UniProt Q9NVC6),1.01 ± 0.047,1.02 ± 0.028
UniProt Q9NWR8,1.09 ± 0.065,1.1 ± 0.06
UniProt Q9NT62 and related entries,1.02 ± 0.042,1 ± 0.048
UniProt Q9NR28 and related entries,0.901 ± 0.059,0.89 ± 0.059
UniProt Q9NXN4 and related entries,0.991 ± 0.079,0.97 ± 0.048
UniProt Q9NXH9 and related entries,1.03 ± 0.027,1.02 ± 0.012
UniProt Q9NZC3 and related entries,0.993 ± 0.073,0.95 ± 0.039
UniProt Q9P0J1 and related entries,1.009 ± 0.0073,0.953 ± 0.092
UniProt Q9NSB8 and related entries,1.11 ± 0.24,1.04 ± 0.11
COMMD9 (UniProt Q9P000),0.95 ± 0.024,0.941 ± 0.03
DCP1A (UniProt Q9NPI6),0.9902 ± 0.0042,1 ± 0.022
MRPL39 (UniProt Q9NYK5),0.968 ± 0.097,1.04 ± 0.14
TMEM106B (UniProt Q9NUM4),0.997 ± 0.081,0.96 ± 0.097
NLE1 (UniProt Q9NVX2),1.04 ± 0.088,0.989 ± 0.049
SACM1L (UniProt Q9NTJ5),1.02 ± 0.061,1.04 ± 0.043
PPP4R2 (UniProt Q9NY27),0.959 ± 0.051,0.963 ± 0.055
LANCL2 (UniProt Q9NS86),0.987 ± 0.048,0.992 ± 0.047
ADPRHL2 (UniProt Q9NX46),0.9938 ± 0.009,0.947 ± 0.022
UniProt Q9NZ08-2,1.01 ± 0.05,1.01 ± 0.031
PNO1 (UniProt Q9NRX1),0.918 ± 0.099,1.04 ± 0.044
VPS45 (UniProt Q9NRW7),1.02 ± 0.1,1.01 ± 0.03
UniProt Q9NZ09 and related entries,0.943 ± 0.088,0.902 ± 0.065
HSPBP1 (UniProt Q9NZL4),0.942 ± 0.058,0.903 ± 0.051

# Full records as entered above. Order of values: NP40-soluble protein abundance (concentration: 0.1mM)	NP40-soluble protein abundance (concentration: 0.5mM)
# NLE1 (UniProt Q9NVX2) is entered as 1.04 ± 0.088	0.989 ± 0.049
# CHST12 (UniProt Q9NRB3) is entered as 0.916 ± 0.047	0.882 ± 0.087
# UniProt Q9NYR9 and related entries is entered as 1.02 ± 0.018	1.08 ± 0.059
# UniProt Q9NZC3 and related entries is entered as 0.993 ± 0.073	0.95 ± 0.039

# (further entries)

Target,NP40-soluble protein abundance (concentration: 0.1mM),NP40-soluble protein abundance (concentration: 0.5mM)
BAZ1A (UniProt Q9NRL2),1.05 ± 0.021,1.14 ± 0.053
UniProt Q9NZT2 and related entries,0.9904 ± 0.0072,0.9528 ± 0.0077
UniProt Q9NQ66 and related entries,1.01 ± 0.058,0.988 ± 0.04
UniProt Q9NUP7,1.04 ± 0.034,1.04 ± 0.082
BSDC1 (UniProt Q9NW68),0.922 ± 0.036,0.898 ± 0.032
CCDC59 (UniProt Q9P031),0.928 ± 0.12,0.918 ± 0.11
CDKN2AIP (UniProt Q9NXV6),0.965 ± 0.019,0.969 ± 0.025
UniProt Q9NWV4,0.996 ± 0.039,0.99 ± 0.036
UniProt Q9NRL3 and related entries,1 ± 0.036,1.02 ± 0.027
UniProt Q9NR31-2|Q9NR31,0.967 ± 0.035,1.01 ± 0.047
UniProt Q9P0U4 and related entries,1.02 ± 0.029,1.01 ± 0.041
TBC1D22B (UniProt Q9NU19),1.028 ± 0.0041,1.04 ± 0.015
NUDT4 (UniProt Q9NZJ9),1.06 ± 0.16,0.972 ± 0.1
ASF1B (UniProt Q9NVP2),1.02 ± 0.055,1.07 ± 0.044
UniProt Q9NQX3 and related entries,1.02 ± 0.025,0.989 ± 0.03
UniProt Q9NVK5-2,0.95 ± 0.1,0.926 ± 0.061
UniProt Q9NUS5,1.019 ± 0.0058,0.978 ± 0.099
UniProt Q9NVA1 and related entries,0.997 ± 0.063,1.06 ± 0.12
CHMP5 (UniProt Q9NZZ3),0.916 ± 0.14,0.89 ± 0.16
THUMPD1 (UniProt Q9NXG2),0.915 ± 0.049,0.911 ± 0.091
MRPL40 (UniProt Q9NQ50),0.956 ± 0.17,0.963 ± 0.13
FAM120C (UniProt Q9NX05),0.988 ± 0.076,0.999 ± 0.09
TXNL4B (UniProt Q9NX01),1.01 ± 0.053,0.962 ± 0.08
KCTD5 (UniProt Q9NXV2),0.98 ± 0.074,0.969 ± 0.11

Target,NP40-soluble protein abundance (concentration: 0.1mM),NP40-soluble protein abundance (concentration: 0.5mM)
USE1 (UniProt Q9NZ43),0.943 ± 0.037,0.938 ± 0.025
LYAR (UniProt Q9NX58),0.945 ± 0.065,0.9368 ± 0.0049
COMMD8 (UniProt Q9NX08),0.998 ± 0.081,0.906 ± 0.15
UniProt Q9NQS7 and related entries,0.996 ± 0.021,1.06 ± 0.021
UniProt Q9NWU2,0.883 ± 0.12,0.843 ± 0.19
UniProt Q9NUQ3,1 ± 0.015,1.02 ± 0.051
MYO5C (UniProt Q9NQX4),0.973 ± 0.026,0.977 ± 0.032
CISD1 (UniProt Q9NZ45),0.945 ± 0.068,0.947 ± 0.091
MPP6 (UniProt Q9NZW5),1.04 ± 0.073,1.03 ± 0.039
FAM114A2 (UniProt Q9NRY5),0.961 ± 0.036,0.976 ± 0.014
NSMCE4A (UniProt Q9NXX6),1.04 ± 0.021,1.04 ± 0.022
UniProt Q9NXE8,0.947 ± 0.062,1.07 ± 0.018
SMYD2 (UniProt Q9NRG4),1.1 ± 0.099,1.12 ± 0.1
UniProt Q9NSI2 and related entries,0.965 ± 0.061,0.93 ± 0.082
FASTKD2 (UniProt Q9NYY8),1.05 ± 0.075,1.02 ± 0.051
UniProt Q9NVM4 and related entries,1.11 ± 0.063,1.04 ± 0.084
UniProt Q9NQ88,0.983 ± 0.021,1.01 ± 0.033
HIF1AN (UniProt Q9NWT6),1.01 ± 0.04,1.04 ± 0.055
UniProt Q9P0N9 and related entries,0.974 ± 0.024,0.98 ± 0.052
HPS4 (UniProt Q9NQG7),1.11 ± 0.081,1.02 ± 0.036
THYN1 (UniProt Q9P016),0.942 ± 0.056,0.964 ± 0.061
UniProt Q9NVH2 and related entries,1.01 ± 0.071,0.998 ± 0.066
IGF2BP1 (UniProt Q9NZI8),1.03 ± 0.031,1.03 ± 0.038
VPS18 (UniProt Q9P253),1.06 ± 0.035,1.04 ± 0.065
